Measured values published in article PMC10711645.
These are yes or no findings as the source states them, for the method shown. Binding seen in cells or lysates may run through a third protein. Some entries that bind do so weakly or less than the wild type.

By UniProt entry, the sequences of proteins in these tests, tags left out.
UniProt O00425: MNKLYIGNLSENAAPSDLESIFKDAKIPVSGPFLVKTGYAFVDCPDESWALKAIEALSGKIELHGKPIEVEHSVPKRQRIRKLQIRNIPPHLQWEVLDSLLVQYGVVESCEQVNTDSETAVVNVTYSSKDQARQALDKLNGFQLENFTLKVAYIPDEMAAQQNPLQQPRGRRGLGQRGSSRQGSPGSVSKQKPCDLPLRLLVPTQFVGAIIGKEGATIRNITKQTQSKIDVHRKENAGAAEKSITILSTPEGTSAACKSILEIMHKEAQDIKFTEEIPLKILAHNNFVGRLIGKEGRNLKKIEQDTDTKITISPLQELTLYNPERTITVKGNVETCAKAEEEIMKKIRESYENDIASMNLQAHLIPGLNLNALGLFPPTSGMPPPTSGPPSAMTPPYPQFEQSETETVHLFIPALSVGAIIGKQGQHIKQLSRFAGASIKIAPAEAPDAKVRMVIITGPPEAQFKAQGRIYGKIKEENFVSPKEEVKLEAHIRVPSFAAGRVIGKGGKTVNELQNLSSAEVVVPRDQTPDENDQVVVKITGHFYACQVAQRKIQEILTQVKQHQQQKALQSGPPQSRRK
UniProt Q15717: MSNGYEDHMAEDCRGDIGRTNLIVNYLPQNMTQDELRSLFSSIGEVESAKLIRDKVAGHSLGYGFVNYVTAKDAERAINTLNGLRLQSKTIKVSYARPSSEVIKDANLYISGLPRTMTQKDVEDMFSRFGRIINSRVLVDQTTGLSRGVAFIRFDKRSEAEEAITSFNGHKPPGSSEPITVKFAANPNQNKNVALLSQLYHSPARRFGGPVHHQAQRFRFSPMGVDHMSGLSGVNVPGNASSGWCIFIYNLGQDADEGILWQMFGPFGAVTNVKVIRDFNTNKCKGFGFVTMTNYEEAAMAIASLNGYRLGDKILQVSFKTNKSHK
UniProt P11940: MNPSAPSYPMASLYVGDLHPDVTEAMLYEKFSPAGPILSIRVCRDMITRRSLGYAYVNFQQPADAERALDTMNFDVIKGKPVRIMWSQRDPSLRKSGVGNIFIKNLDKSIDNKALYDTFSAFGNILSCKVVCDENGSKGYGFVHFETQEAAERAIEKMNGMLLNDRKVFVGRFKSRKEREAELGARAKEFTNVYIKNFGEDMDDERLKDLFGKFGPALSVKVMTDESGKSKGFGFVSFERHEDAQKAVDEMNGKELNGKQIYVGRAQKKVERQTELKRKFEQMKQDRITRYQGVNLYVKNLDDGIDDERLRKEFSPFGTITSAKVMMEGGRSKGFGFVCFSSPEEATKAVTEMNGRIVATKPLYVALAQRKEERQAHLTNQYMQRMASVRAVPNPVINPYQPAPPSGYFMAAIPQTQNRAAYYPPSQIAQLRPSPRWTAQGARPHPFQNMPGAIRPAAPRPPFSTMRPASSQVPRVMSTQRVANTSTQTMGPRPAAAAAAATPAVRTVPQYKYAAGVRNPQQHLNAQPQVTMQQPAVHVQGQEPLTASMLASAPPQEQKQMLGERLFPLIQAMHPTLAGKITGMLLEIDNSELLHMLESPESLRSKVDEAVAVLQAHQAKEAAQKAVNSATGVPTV

B1: Matrin3 (protein, UniProt P43243 1-847)
chain: MSKSFQQSSLSRDSQGHGRDLSAAGIGLLAAATQSLSMPASLGRMNQGTARLASLMNLGMSSSLNQQGAHSALSSASTSSHNLQSIFNIGSRGPLPLSSQHRGDADQASNILASFGLSARDLDELSRYPEDKITPENLPQILLQLKRRRTEEGPTLSYGRDGRSATREPPYRVPRDDWEEKRHFRRDSFDDRGPSLNPVLDYDHGSRSQESGYYDRMDYEDDRLRDGERCRDDSFFGETSHNYHKFDSEYERMGRGPGPLQERSLFEKKRGAPPSSNIEDFHGLLPKGYPHLCSICDLPVHSNKEWSQHINGASHSRRCQLLLEIYPEWNPDNDTGHTMGDPFMLQQSTNPAPGILGPPPPSFHLGGPAVGPRGNLGAGNGNLQGPRHMQKGRVETSRVVHIMDFQRGKNLRYQLLQLVEPFGVISNHLILNKINEAFIEMATTEDAQAAVDYYTTTPALVFGKPVRVHLSQKYKRIKKPEGKPDQKFDQKQELGRVIHLSNLPHSGYSDSAVLKLAEPYGKIKNYILMRMKSQAFIEMETREDAMAMVDHCLKKALWFQGRCVKVDLSEKYKKLVLRIPNRGIDLLKKDKSRKRSYSPDGKESPSDKKSKTDGSQKTESSTEGKEQEEKSGEDGEKDTKDDQTEQEPNMLLESEDELLVDEEEAAALLESGSSVGDETDLANLGDVASDGKKEPSDKAVKKDGSASAAAKKKLKKVDKIEELDQENEAALENGIKNEENTEPGAESSENADDPNKDTSENADGQSDENKDDYTIPDEYRIGPYQPNVPVGIDYVIPKTGFYCKLCSLFYTNEEVAKNTHCSSLPHYQKLKKFLNKLAEERRQKKET

Molecular target: IGF2BP3 (insulin-like growth factor 2 mRNA-binding protein 3) (human (endogenous in 786-O and ACHN)) (UniProt O00425)
Assay: co-IP; lysates of 786-O and ACHN cells (circRARS knocked down or overexpressed) in IP lysis buffer with protease inhibitor; anti-IGF2BP3 antibody (1:100) at 4°C overnight, IgG as negative control; protein A/G magnetic beads 2 h at 4°C; SDS-PAGE and blot

| binding | Molecule |
| --- | --- |
| binds | HuR (from UniProt Q15717 1-326) |
| binds | pAbPC1 (from UniProt P11940 1-636) |
| binds | B1 |
